The target of series [1] is T1, cyAbrB2 (native) (Synechocystis sp. PCC 6803) (UniProt Q55432).
T1 sequence (looked up, limits assumed): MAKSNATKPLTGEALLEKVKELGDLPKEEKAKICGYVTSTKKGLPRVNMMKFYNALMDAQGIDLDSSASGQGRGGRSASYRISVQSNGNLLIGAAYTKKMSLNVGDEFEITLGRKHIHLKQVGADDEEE
Put plainly: pull-down/MS. Conditions: enriched versus 5'UTR; protein in an extract; label: biotin on 5' end of reverse strand.

The target of series [2] is T2, cyAbrB1 (native) (Synechocystis sp. PCC 6803) (UniProt P74426).
T2 sequence (looked up, limits assumed): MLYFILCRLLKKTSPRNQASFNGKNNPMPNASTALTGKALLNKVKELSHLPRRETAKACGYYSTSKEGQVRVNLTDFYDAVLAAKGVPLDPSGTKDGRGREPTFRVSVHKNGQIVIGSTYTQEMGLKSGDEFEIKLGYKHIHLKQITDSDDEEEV
Put plainly: pull-down/MS. Conditions: enriched versus 5'UTR; protein in an extract; label: biotin on 5' end of reverse strand.

The target in series [3] is T3, HU (Synechocystis sp. PCC 6803) (UniProt P73418).
T3 sequence (looked up, limits assumed): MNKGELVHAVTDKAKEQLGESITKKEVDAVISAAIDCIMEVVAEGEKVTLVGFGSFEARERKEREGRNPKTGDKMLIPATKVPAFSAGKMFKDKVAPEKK
Put plainly: pull-down/MS. The note with it: protein in an extract, label: biotin on 5' end of reverse strand.

Series [4] addresses T4, cyAbrB2 (Synechocystis sp. PCC 6803) (UniProt Q55432).
T4 sequence (looked up): T1 sequence (looked up, limits assumed)
Description: EMSA. The note with it: value only in figure, EMSA: 12 mM HEPES, 4 mM Tris, 12 mM KCl, 1 mM EDTA, 1 mM EGTA, 12% glycerol, 1 ug poly(dIdC), 3% agarose, 0.5x TBE, pH 8.2 or 5 tested, recombinant protein, residues 1-129, protein details: N-terminal 6xHis, label: Cy3 on 5' end of reverse strand. A general note: Mobility shift assays separate free from complexed probe on a gel.

Consider four sequences from PMC9241938.

For part of these data: A weaker result is weaker than the reference pair of the same experiment. Protein sequences can lack the tags named with them. For part of these data: For at least one entry, the source does not settle the construct or the ends of the probe. For part of these data: Where cells or extracts were used, other partners may take part. For part of these data: At least one verdict rests on a figure or table, not on a statement of the authors.

For the sequence “TTTGCCCAATTTGACAATATATTAAGAAATCCTCATCTAACCTGTTTTTCATTGGATAATTAAAACAAGAGGAAAGATCAGGGGGCAGGAAAATAAATTACCTAATACCTAGTCCTGGTTGATAAAACCAGAGGCAGAAAACCTCCCCGTTTTCTCAAACTTGCCCAAAAGACAACTGTTGAGTTTCCCCCATTGGGACGGAGGTTATG (double strand) [biotinylated PatpT66-5'UTR]”, the figures for the binding result in series [1], in series [2] and in series [3] (less enriched than on 5'UTR) were “binds”, “binds” and “binds more weakly”, respectively.

For “AAGAGGAAAGATCAGGGGGCAGGAAAATAAATTACCTAATACCTAGTCCTGGTTGATAAAACCAGAGGCAGAAAACCTCCCCGTTTTCTCAAACTTGCCCAAAAGACAACTGTTGAGTTTCCCCCATTGGGACGGAGGTTATG (double strand) [atpT 5'UTR]”, in series [4] (shift only at high protein (2.2 ug)), the binding result was “binds more weakly”.

On to “TTTGCCCAATTTGACAATATATTAAGAAATCCTCATCTAACCTGTTTTTCATTGGATAATTAAAACAAGAGGAAAGATCAGGGGGCAGGAAAATAAATTACCTAATACCTAGTCCTGGTTGATAAAACCAGAGGCAGAAAACCTCCCCGTTTTCTCAAACTTGCCCAAAAGACAACTGTTGAGTTTCCCCCATTGGGACGGAGGTTATG (double strand) [PatpT66-5'UTR]”, for which the binding result in series [4] is reported as “binds”.

On to “AAGAGGAAAGATCAGGGGGCAGGAAAATAAATTACCTAATACCTAGTCCTGGTTGATAAAACCAGAGGCAGAAAACCTCCCCGTTTTCTCAAACTTGCCCAAAAGACAACTGTTGAGTTTCCCCCATTGGGACGGAGGTTATG (double strand) [biotinylated atpT 5'UTR]”, for which the binding result in series [3] (enriched versus PatpT66-5'UTR) is listed as “binds”.
